Reference: paper PMC4673164
These are yes or no findings as the source states them, for the method shown. Binding seen in cells or lysates may run through a third protein. Some entries that bind do so weakly or less than the wild type.

Protein sequences, listed by entry. Tags and fused reporters are not part of them.
UniProt P15056: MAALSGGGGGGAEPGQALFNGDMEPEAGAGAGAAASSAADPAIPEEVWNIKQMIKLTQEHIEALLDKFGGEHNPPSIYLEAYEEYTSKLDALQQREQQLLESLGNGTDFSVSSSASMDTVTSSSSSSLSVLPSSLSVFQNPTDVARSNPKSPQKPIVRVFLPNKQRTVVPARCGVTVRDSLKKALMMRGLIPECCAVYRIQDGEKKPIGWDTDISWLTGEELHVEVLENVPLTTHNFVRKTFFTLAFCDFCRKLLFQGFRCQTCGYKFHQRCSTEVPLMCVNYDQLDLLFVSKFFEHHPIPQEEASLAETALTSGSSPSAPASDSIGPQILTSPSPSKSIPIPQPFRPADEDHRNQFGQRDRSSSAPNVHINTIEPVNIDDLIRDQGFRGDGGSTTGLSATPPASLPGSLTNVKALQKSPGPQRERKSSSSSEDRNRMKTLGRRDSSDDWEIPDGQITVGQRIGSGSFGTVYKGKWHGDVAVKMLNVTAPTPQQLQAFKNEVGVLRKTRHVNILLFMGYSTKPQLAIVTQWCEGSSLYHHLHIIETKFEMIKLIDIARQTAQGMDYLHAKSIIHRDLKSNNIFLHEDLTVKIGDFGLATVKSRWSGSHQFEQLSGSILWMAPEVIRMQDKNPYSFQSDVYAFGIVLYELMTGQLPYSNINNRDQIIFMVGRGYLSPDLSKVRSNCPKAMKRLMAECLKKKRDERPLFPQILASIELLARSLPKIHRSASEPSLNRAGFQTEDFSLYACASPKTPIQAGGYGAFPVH

Biological target: T1, TRAP1 (human) (UniProt Q12931)
T1 sequence: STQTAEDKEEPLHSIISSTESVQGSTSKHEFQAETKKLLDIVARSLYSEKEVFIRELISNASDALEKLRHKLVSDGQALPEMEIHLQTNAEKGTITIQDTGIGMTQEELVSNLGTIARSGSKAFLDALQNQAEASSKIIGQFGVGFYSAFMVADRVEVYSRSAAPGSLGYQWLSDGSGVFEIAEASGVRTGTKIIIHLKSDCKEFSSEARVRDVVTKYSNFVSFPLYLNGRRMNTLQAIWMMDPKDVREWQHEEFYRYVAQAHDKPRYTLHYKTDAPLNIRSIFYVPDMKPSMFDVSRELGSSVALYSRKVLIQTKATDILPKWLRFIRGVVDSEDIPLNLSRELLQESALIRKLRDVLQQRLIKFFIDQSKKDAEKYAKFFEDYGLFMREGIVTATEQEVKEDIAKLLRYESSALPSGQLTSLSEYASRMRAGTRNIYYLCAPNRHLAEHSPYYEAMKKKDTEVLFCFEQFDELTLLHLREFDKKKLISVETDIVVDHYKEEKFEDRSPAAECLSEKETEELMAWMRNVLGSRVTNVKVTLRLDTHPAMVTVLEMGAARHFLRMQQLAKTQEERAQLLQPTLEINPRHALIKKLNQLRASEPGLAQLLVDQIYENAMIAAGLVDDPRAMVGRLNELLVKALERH
Experiment: co-IP; total lysates of MCF7 cells co-transfected with TRAP1 and BRAF; immunoprecipitated with anti-TRAP1, immunoblotted; 18 h at 4°C, protein A/G-agarose, washed twice in lysis buffer

binding: binds
Substance: BRAF wild type (BRAF-myc) (from UniProt P15056 1-766)
